Reference: patent publication US20040024066A1, “Bicyclyl or heterobicyclylmethanesulfonylamino-substituted n-hydroxyformamides” (priority 2000, published 2004)
Some entries share one result that the patent states for a list of compounds. At least one compound was matched to its structure with a doubt left.

Tested on: CD23 cleavage activity of RPMI 8866 cell plasma membranes (production of sCD23)
Experiment: RPMI 8866 Cell Membrane CD23 Cleavage Activity Assay (inhibition of release of soluble CD23)
Type: biochemical, human
Details: RPMI 8866 plasma membranes, 37° C., sCD23 measured by EIA; read-out: IC50, concentration where 50 % inhibition of production of sCD23 is observed

## O=CN(O)[C@H](CS(=O)(=O)Cc1ccc2sccc2c1)c1ccccc1 [Example 7]
  IC50: ≤ 1000 nM
